Source: PubChem BioAssay AID2685 (National Center for Advancing Translational Sciences (NCATS), 2010)
Screen size: about 320,000 compounds; about 2,100 (0.66%) were called active. The inconclusive results got no clear call from the source; some entries with a clear call stand among them for comparison. Calls follow the shape of the dose curve; as a rule, active = well fitted inhibition curve with a large enough effect in the signal ratio, with a control signal flat (not every such curve was filed as active); inconclusive = small, poorly fitted or top-dose-only effect, or effect the other way, or a change in a side signal; inactive = flat fitted curve, though single readings scatter; the % refers to the signal ratio. Potencies beside an inconclusive call are fits to weak or partial responses and may not hold up.

Test: qHTS Assay for Lipid Storage Modulators in Drosophila S3 Cells
Settings: BODIPY lipid droplet fluorescence, 18-24 h, cells fed with added oleic acid; lipid storage change, negative = inhibition: at 46.1 µM (top of the series) unless noted
Method in brief: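 Drosophila S3 cells loaded with oleic acid (400 uM, as added) and compounds at several concentrations; lipid droplets imaged by 488-nm laser-scanning cytometry, 500–530 nm intensity and object ratio to cell channel. Percent activity normalized to 20 uM Triacsin C.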
% is scaled to controls: 0 for no effect and ±100 for the full control effect; potency is read from the fitted curve at half-maximal effect.

Compound | lipid storage change, negative = inhibition | Potency
Cc1ccc(C(CNC(=O)c2ccco2)N2CCN(C)CC2)cc1 (stereo not drawn) | inconclusive: -1.14% | 
COc1ccccc1NC(=O)NC(=O)c1ccccc1 |  | inconclusive: 4.11 µM [activator, full curve, poor fit]
COCCNc1nc2c(c(=O)n(Cc3cccc(Br)c3)c(=O)n2C)n1C | inconclusive: 10.9% | 
COc1cccc(/C=N/Nc2ccnc(=O)[nH]2)c1O |  | inconclusive: 6.51 µM [rising, partial curve, poor fit]
O=C(CSC(=S)N1CCCC1)N1CCN(S(=O)(=O)c2ccccc2F)CC1 | inconclusive: 11% | 
Cn1nccc1C(=O)OCC(=O)Nc1ccccc1Cl |  | inconclusive: 23.1 µM [falling, single point]
CC(=O)C1=C(O)C(=O)N(CCc2c[nH]c3ccccc23)C1c1ccc(O)cc1 (stereo not drawn) | inactive | 
CCOc1cc(/C=C2\SC(=S)N(NC(=O)c3cccnc3)C2=O)ccc1O | inconclusive: -39.5% | 
O=C(NCCCC(=O)N1CCOCC1)c1cccnc1 | inconclusive: -11.7% | 
Cc1ccc(C)c(NC(=O)/C(C#N)=C/c2cn(CC(=O)NCc3ccco3)c3ccccc23)c1 |  | inconclusive: 11.6 µM [falling, partial curve, poor fit]
O=C(NCC1CCCO1)c1ccc2c(c1)C(=O)N(c1cccc([N+](=O)[O-])c1)C2=O (stereo not drawn) |  | active: 0.82 µM
O=C(Nc1ncccn1)c1cccc(F)c1 | inactive | 
CCc1nnc(NC(=O)CSc2nc(-c3ccccc3)cc(-c3ccc(F)cc3)c2C#N)s1 | inconclusive: 453% | 
CC1=CC(C)(C)N2C(=O)C3(SCC(=O)N3c3ccc(O)cc3)c3cc(C)cc1c32 (stereo not drawn) |  | inconclusive: 1.84 µM [activator, full curve, poor fit]
CC(OC(=O)c1nc(Cl)ccc1Cl)C(=O)Nc1ccc2c(c1)OCCO2 (stereo not drawn) | inconclusive | 
CCCCN(C(=O)CSCC(=O)Nc1ccc(OC)cc1)c1c(N)n(CCC)c(=O)[nH]c1=O | inconclusive: 20.7% | 
CC1CCCN(C(=O)c2ccc3c(c2)OCO3)C1 (stereo not drawn) | inconclusive: 23.2% | 
CN1C[C@@H]2C(c3ccccc3)C3(c4cccnc4)CC2(C3)[C@H]1c1ccccc1 (stereo partly drawn) | inconclusive: 12.4% | 
Cc1nnc(SCC(=O)Nc2c(Cl)cccc2Cl)n(N)c1=O | inconclusive: 62.8% [at 0.0737 µM] | 
O=C(Nc1ccncc1)c1sc2ccccc2c1Cl | inactive | 
CC(C)Sc1snnc1-c1ccccc1 |  | inconclusive: 0.164 µM [activator, full curve, poor fit]
COc1ccc(NC(=O)CCNC(=O)c2ccco2)cc1S(=O)(=O)N(C)C |  | inconclusive: 18.4 µM [activator, single point]
N=C1C(c2nc3ccccc3s2)=C(O)CN1NC(=O)c1ccc([N+](=O)[O-])cc1 | inconclusive: 18.2% | 
O=S(=O)(c1ccc(F)cc1)N1CCC(c2nc3ccccc3[nH]2)CC1 | inconclusive: 47.2% | 
COC(=O)c1ccccc1NC(=S)NC(=O)CC(C)C | inconclusive: -14.5% | 
Oc1ccc(-c2nccc(-c3ccc(Cl)cc3Cl)n2)cc1 | inconclusive: -1.96% | 

Filtered by structure, those above with a carbonyl joined to an NH by a bond outside any ring.
Compound | lipid storage change, negative = inhibition | Potency
Cc1ccc(C(CNC(=O)c2ccco2)N2CCN(C)CC2)cc1 (stereo not drawn) | inconclusive: -1.14% | 
COc1ccccc1NC(=O)NC(=O)c1ccccc1 |  | inconclusive: 4.11 µM [activator, full curve, poor fit]
Cn1nccc1C(=O)OCC(=O)Nc1ccccc1Cl |  | inconclusive: 23.1 µM [falling, single point]
CCOc1cc(/C=C2\SC(=S)N(NC(=O)c3cccnc3)C2=O)ccc1O | inconclusive: -39.5% | 
O=C(NCCCC(=O)N1CCOCC1)c1cccnc1 | inconclusive: -11.7% | 
Cc1ccc(C)c(NC(=O)/C(C#N)=C/c2cn(CC(=O)NCc3ccco3)c3ccccc23)c1 |  | inconclusive: 11.6 µM [falling, partial curve, poor fit]
O=C(NCC1CCCO1)c1ccc2c(c1)C(=O)N(c1cccc([N+](=O)[O-])c1)C2=O (stereo not drawn) |  | active: 0.82 µM
O=C(Nc1ncccn1)c1cccc(F)c1 | inactive | 
CCc1nnc(NC(=O)CSc2nc(-c3ccccc3)cc(-c3ccc(F)cc3)c2C#N)s1 | inconclusive: 453% | 
CC(OC(=O)c1nc(Cl)ccc1Cl)C(=O)Nc1ccc2c(c1)OCCO2 (stereo not drawn) | inconclusive | 
CCCCN(C(=O)CSCC(=O)Nc1ccc(OC)cc1)c1c(N)n(CCC)c(=O)[nH]c1=O | inconclusive: 20.7% | 
Cc1nnc(SCC(=O)Nc2c(Cl)cccc2Cl)n(N)c1=O | inconclusive: 62.8% [at 0.0737 µM] | 
O=C(Nc1ccncc1)c1sc2ccccc2c1Cl | inactive | 
COc1ccc(NC(=O)CCNC(=O)c2ccco2)cc1S(=O)(=O)N(C)C |  | inconclusive: 18.4 µM [activator, single point]
N=C1C(c2nc3ccccc3s2)=C(O)CN1NC(=O)c1ccc([N+](=O)[O-])cc1 | inconclusive: 18.2% | 
COC(=O)c1ccccc1NC(=S)NC(=O)CC(C)C | inconclusive: -14.5% | 

(more compounds)

Compound | lipid storage change, negative = inhibition | Potency
Cc1ccc(CNC(=O)Cc2ccc(-n3cccc3)cc2)cc1 | inconclusive: 1.66% | 
O=C(COC(=O)c1ccccc1-n1cnnn1)c1ccc(F)cc1 | inconclusive: 0.841% | 
CCC(=O)Nc1ccc(C(=O)CN2C(=O)NC3(CCOc4ccccc43)C2=O)cc1 (stereo not drawn) | inconclusive: 16.7% | 
CC(Oc1ccc2c(-c3ccccc3)cc(=O)oc2c1)C(=O)NCC(O)c1ccccc1 (stereo not drawn) |  | inconclusive: 16.4 µM [activator, partial curve, poor fit]
Cc1nnc(SCC(=O)NCc2ccc3c(c2)OCO3)s1 |  | inconclusive: 29.1 µM [cytotoxic, single point]
CCOC(=O)C(NC(C)=O)(NC(C)C)C(F)(F)F (stereo not drawn) | inconclusive: -19.4% | 
O=c1c2ccccc2nc(/C=C/c2cccnc2)n1CCc1ccccc1 | inconclusive: 21.4% | 
CC(Sc1nnc2c(n1)C1(C)CCC2C1(C)C)C(=O)Nc1ccccc1 (stereo not drawn) |  | inconclusive: 0.411 µM [falling, single point]
CCN(CC)CCNC(=O)CNC(=O)c1nn(-c2ccc(OC)cc2)c(=O)c2ccccc12 | inconclusive: -6.94% | 
COC(=O)c1sccc1NC(=O)COc1cccc(C)c1 |  | inconclusive: 25.9 µM [activator, partial curve, poor fit]
COc1ccc(OCc2cc(C(=O)NC(C)Cn3cncn3)no2)c(Cl)c1 (stereo not drawn) | inconclusive: 29.1% | 
Cc1ccc(C(=O)/C=C\Nc2ccc(C)c(C)c2)cc1 | inconclusive: 17.4% | 
CCN(CC)CCCNC(=O)CC1Sc2ccccc2NC1=O (stereo not drawn) |  | inconclusive: 9.2 µM [activator, partial curve]
C/C(=N\NC(=S)NCc1ccccc1)c1ccc(Cl)cc1 |  | inconclusive: 20.6 µM [activator, partial curve]
CCN(CC)S(=O)(=O)c1ccc(NC(=O)CNC2CCCCC2)cc1 | inconclusive: 11.8% | 
CC(=O)N1CCC(=NNc2ccc(S(=O)(=O)N3CCOCC3)cc2[N+](=O)[O-])CC1 |  | inconclusive: 6.51 µM [falling, single point]
Cc1noc(NS(=O)(=O)c2ccc(NC(=O)C(C)(C)C)cc2)c1C | inconclusive: 23.1% | 
Cc1sc(NC(=O)CN(Cc2ccc(F)cc2)C(=O)C(C)C)c(C(N)=O)c1C | inconclusive: 7.77% | 
O=C(NNC(=O)c1ccccc1[N+](=O)[O-])Nc1ccc(Cl)cc1 | inconclusive: -10.2% | 
Cc1ccc2nc(C)cc(OCC(=O)O)c2c1 | inconclusive: -45.3% | 
Cc1cc(OC(=O)c2ccccc2F)c([N+](=O)[O-])c(=O)[nH]1 | inconclusive: 129% | 
Cc1ccc(S(=O)(=O)N2[C@@H](c3ccc(Cl)cc3)C(C(=O)O)=CC[C@H]2c2ccc(Cl)c(Cl)c2)cc1 | inconclusive: -17.7% | 
Cc1ccc(S(=O)(=O)N2CCN(C(=O)c3ccc4nc[nH]c4c3)CC2)cc1 | inconclusive | 
Cn1ccsc1=NC(=O)c1cccc(OC(F)F)c1 | inactive | 
COc1ccccc1NC(=S)NC(=O)c1ccc(Cn2cc(Br)cn2)cc1 | inconclusive: 21.8% | 
CCOc1ccc(N(CC(=O)NC2CCCCC2)C(=O)CCCC(=O)Nc2ccccn2)cc1 |  | inconclusive: 29.1 µM [falling, partial curve, poor fit]

Compound | lipid storage change, negative = inhibition | Potency
CCOC(=O)c1cnn(-c2ccccc2)c1-n1cccc1C(=O)C(=O)Nc1ccc(F)cc1 | inconclusive: -10.8% | 
C=CCNCC(=O)NN=C(c1ccccc1)c1ccccc1 | inconclusive: 14.3% | 
COc1ccc(NS(=O)(=O)c2ccc(C)c(C(=O)N(C)Cc3ccc(OC)cc3OC)c2)cc1 | inactive: -11.3% [at 0.0737 µM] | 
O=C(CSc1nc(Nc2ccccc2)nc(N2CCOCC2)n1)Nc1ccc(Br)cc1F | inconclusive: 4.16% | 
CC1CCN(C(=S)c2ccccc2O)CC1 |  | inconclusive: 0.231 µM [falling, full curve, poor fit]
O=C(Nc1ccc2c(c1)CCC2)c1cc(F)cc(F)c1 |  | inconclusive: 29.1 µM [falling, single point]
CCn1c(COc2ccccc2C)nnc1SCC(=O)CC(=O)Nc1ccccc1OC | inconclusive: 54.1% | 
CCC(C)Cn1c(C)nc2ccccc21 (stereo not drawn) | inconclusive: 13.2% | 
CC(C)CC(C(=O)N1CCOCC1)N1Cc2ccccc2C1=O (stereo not drawn) | inconclusive: -3.11% | 
COc1cccc(NC(=O)C2CCCN(S(=O)(=O)c3ccc(-n4cnnn4)cc3)C2)c1 (stereo not drawn) | inconclusive: 13.4% | 
O=C(Nc1ccc2c(c1)OCO2)C1CCCN1C(=O)OCc1ccccc1 (stereo not drawn) |  | inconclusive: 0.146 µM [activator, full curve, poor fit]
O=C(CSc1nc(O)c(Cc2ccccc2)c(=O)[nH]1)Nc1nnc(SCc2ccccc2)s1 | inconclusive: -0.114% | 
O=C(CCCCCNc1nc(=S)[nH]c2ccccc12)NCCc1ccc(Cl)cc1 | inconclusive: -20.1% | 
Cc1cc(Nc2ccc(F)c(Cl)c2)n2nc(C)nc2n1 | inconclusive: 16.4% | 
Cc1cc(C)c(C(N)=O)c(SCC(=O)c2ccc(Cl)cc2)n1 | inconclusive: 5.98% | 
O=C(Cc1ccccc1)NNC(=O)Nc1cccc(Cl)c1 | inconclusive: 6.01% | 
O=C(C1CCN(S(=O)(=O)c2ccccc2)CC1)N1CCN(c2ccccc2F)CC1 | inconclusive: 18.9% | 
Cc1nc(N)c(Br)c(C)c1Br |  | inconclusive: 0.0058 µM [falling, full curve, poor fit]
C/C(N)=C(/C#N)C(=O)CSc1nnc(Nc2c(C)cccc2C)s1 |  | inconclusive: 0.146 µM [activator, full curve]
CCN(CC(=O)Nc1ccc(OC)cc1)CC(=O)N1CC(=O)Nc2ccccc21 | inconclusive: 9.3% | 
O=C(c1ccc(N2CCN(S(=O)(=O)c3ccccc3)CC2)c([N+](=O)[O-])c1)N1CCOCC1 | inconclusive: -11.9% | 
CCOC(=O)N1CCN(C(=O)c2cc(S(=O)(=O)N3CCc4ccccc43)ccc2OC)CC1 | inconclusive | 
S=C(NCCCc1ccccc1)Nc1ccccc1 |  | inconclusive: 0.58 µM [activator, single point]
CCOC(=O)c1nn(-c2ccc(C)c(Cl)c2)c(=O)c(C#N)c1C | inconclusive: -23.7% | 
O=C(O)C(=O)/C(=C\c1cccc(Cl)c1)c1ccc2ccccc2n1 | inconclusive: 69.9% | 
CCOC(=O)/C(C#N)=C/c1cc2ccccc2nc1N1CCCCC1 |  | inconclusive: 29.1 µM [falling, single point]
